The values below come from PubChem BioAssay AID248 (DTP/NCI, 2004).

The test system of the experiment is L1210 leukemia ip in BDF1 mice, survival T/C. Nature of the experiment: NCI In Vivo Anticancer Drug Screen. Data for tumor model L1210 Leukemia (intraperitoneal) in B6D2F1 (BDF1) mice. The conditions noted are these: T/C endpoint: mean survival time, higher T/C = longer survival.
[1] abbreviates: dose: 400.0 mg/kg/injection, schedule: Q01DX009 (ip), vehicle: Klucel (hydroxypropylcellulose) (HPC).
Where [2] appears, read: dose: 400.0 mg/kg/injection, schedule: Q01DX009 (ip), vehicle: saline with Tween-80.
[3] abbreviates: dose: 400.0 mg/kg/injection, schedule: Q04DX002 (ip), vehicle: Klucel (hydroxypropylcellulose) (HPC).
Setting [4] is: dose: 400.0 mg/kg/injection, schedule: Q04DX002 (ip), vehicle: saline.
Where [5] appears, read: dose: 200.0 mg/kg/injection, schedule: Q01DX009 (ip), vehicle: Klucel (hydroxypropylcellulose) (HPC).

The list shows only some results of the screen, not a fair sample: it gathers tests that were run many times, whatever their T/C, doses with no T/C, and many T/C values between a quarter and a half above the control. Further doses and runs are listed elsewhere. T/C: endpoint of the treated group in % of that of the vehicle group. Some doses have a count of surviving animals in place of a T/C: the source holds a T/C of zero for them, seemingly a mark for toxic or unscored doses. Some survivor counts are full or nearly so, which does not show that the dose was tolerated: the source hardly ever lists a survival T/C far under the control, and the zero likely stands for such cases as well. Survivors were counted at the toxicity check, usually on the fifth day, unless a day is given; later deaths do not show. Schedules are NCI's codes, read here as Q, the interval in days (D) or hours (H), X, the number of doses.

On to `CN(C)S(=O)(=O)/C=C/c1ccccc1`, for which the survivor count (dose: 100.0 mg/kg/injection, schedule: Q04DX003 (ip), vehicle: Klucel (hydroxypropylcellulose) (HPC)) is reported as 0 of 6.

Take `CCSC(SCC)C(OC(C)=O)C(OC(C)=O)C(OC(C)=O)C(COC(c1ccccc1)(c1ccccc1)c1ccccc1)OC(C)=O` (stereo not given): where the note is “dose: 400.0 mg/kg/injection, schedule: Q04DX002 (ip), vehicle: saline with Tween-80”, the survivor count is recorded as 3 of 3.

With `O=C(N1CCOCC1)C1(c2ccccc2)CCNCC1`, under “dose: 400.0 mg/kg/injection, schedule: Q04DX003 (ip), vehicle: saline”, the survivor count was 2 of 6.

Regarding `O=C(O)c1c(Br)c(Br)c(Br)c(Br)c1C(=O)Nc1ccccc1C(F)(F)F`, the survivor count under setting [1] is reported as 0 of 6.

As for `O=C(/C(=N\Nc1ccc([N+](=O)[O-])cc1)c1ccccc1)c1ccccc1`, the survivor count was 6 of 6 (dose: 100.0 mg/kg/injection, schedule: Q01DX009 (ip), vehicle: saline with Tween-80); 6 of 6 (dose: 200.0 mg/kg/injection, schedule: Q01DX009 (ip), vehicle: saline with Tween-80); 5 of 6 under setting [2].

Consider `O=C(NSN1CCOCC1)c1ccccc1`, for which, under setting [3], the survivor count is 1 of 3.

Regarding `C=C1C(=O)OC2CC(C)C3CC(=O)C(C)=C3C(O)C12` (stereo not given), the survivor count is, setting by setting: (dose: 100.0 mg/kg/injection, schedule: Q01DX009 (ip), vehicle: saline) 1 of 3; (dose: 100.0 mg/kg/injection, schedule: Q04DX002 (ip), vehicle: saline) 1 of 3; (dose: 200.0 mg/kg/injection, schedule: Q04DX002 (ip), vehicle: saline) 0 of 3; under setting [4], 0 of 3.

With `COc1ccc(NCNc2ccc(OC)cc2)cc1`, the survivor count is 5 of 6 under setting [5] and 0 of 6 (dose: 400.0 mg/kg/injection, schedule: Q04DX003 (ip), vehicle: Klucel (hydroxypropylcellulose) (HPC)).

For the compound `O=C1OCC/C1=C/OC(=O)c1ccccc1`, the survivor count under setting [3] is given as 3 of 3.

With `CCC12C=CCN3CCC4(C(=C(C(=O)OC)C1)Nc1cc(OC)ccc14)C32` (stereo not given), the survivor count under setting [4] is 0 of 3.

With `CN(C)CCC[N+]1([O-])c2ccccc2CCc2ccccc21`, the survivor count is reported as 0 of 6 (dose: 150.0 mg/kg/injection, schedule: Q01DX009 (ip), vehicle: saline) and 2 of 4 (dose: 300.0 mg/kg/injection, schedule: Q04DX003 (ip), vehicle: saline).

In the case of `CCC1(CC)OC2=C(CC(C#N)(C#N)C(C#N)(C#N)C2)O1`, the survivor count (dose: 40.0 mg/kg/injection, schedule: Q01DX001 (ip), vehicle: saline) is on record as 2 of 6; the survivor count (dose: 75.0 mg/kg/injection, schedule: Q01DX001 (ip), vehicle: saline) was 1 of 6; the survivor count (dose: 150.0 mg/kg/injection, schedule: Q01DX001 (ip), vehicle: saline) was 0 of 6; the survivor count (dose: 300.0 mg/kg/injection, schedule: Q01DX001 (ip), vehicle: saline) is 0 of 6.

Regarding `CC1(C)C2CC=C(C[P+](c3ccccc3)(c3ccccc3)c3ccccc3)C1C2` (stereo not given), the survivor count was 0 of 6 (dose: 100.0 mg/kg/injection, schedule: Q04DX003 (ip), vehicle: saline with Tween-80); 0 of 6 (dose: 200.0 mg/kg/injection, schedule: Q04DX003 (ip), vehicle: saline with Tween-80); 0 of 6 (dose: 400.0 mg/kg/injection, schedule: Q04DX003 (ip), vehicle: saline with Tween-80).

For `CCOC(=O)CNC(=O)C1OC(n2cnc3c(N)ncnc32)C(O)C1O` (stereo not given), the survivor count (dose: 25.0 mg/kg/injection, schedule: Q01DX009 (ip), vehicle: saline) is given as 2 of 6; the survivor count (dose: 50.0 mg/kg/injection, schedule: Q01DX005 (ip), vehicle: saline) is on record as 0 of 6; the survivor count (dose: 100.0 mg/kg/injection, schedule: Q01DX005 (ip), vehicle: saline) is reported as 0 of 6; the survivor count (dose: 200.0 mg/kg/injection, schedule: Q01DX005 (ip), vehicle: saline) is reported as 0 of 6.

As to `COc1ccc2nc3cc(Cl)ccc3c(N)c2c1`, the survivor count is on record as 4 of 6 (dose: 20.0 mg/kg/injection, schedule: Q01DX009 (ip), vehicle: Klucel (hydroxypropylcellulose) (HPC)); 0 of 6 (dose: 40.0 mg/kg/injection, schedule: Q01DX009 (ip), vehicle: Klucel (hydroxypropylcellulose) (HPC)); 5 of 6 (dose: 80.0 mg/kg/injection, schedule: Q01DX009 (ip), vehicle: Klucel (hydroxypropylcellulose) (HPC)); 0 of 6 (dose: 100.0 mg/kg/injection, schedule: Q01DX009 (ip), vehicle: Klucel (hydroxypropylcellulose) (HPC)); 0 of 6 under setting [5]; 0 of 6 under setting [1].

As for `Cc1cc(C)c2ccc([S+](C)C)c-2c(C)c1`, the survivor count was 0 of 4 (dose: 100.0 mg/kg/injection, schedule: Q01DX001 (ip), vehicle: carboxymethylcellulose (CMC)); 0 of 4 (dose: 200.0 mg/kg/injection, schedule: Q01DX001 (ip), vehicle: carboxymethylcellulose (CMC)); 0 of 4 (dose: 400.0 mg/kg/injection, schedule: Q01DX001 (ip), vehicle: carboxymethylcellulose (CMC)).

For `CCN(CC)CCNC(=O)c1c2nc3c(C(=O)NCCN(CC)CC)ccc(C)c3oc-2c(C)c(=O)c1N`, the survivor count reads like this: (dose: 150.0 mg/kg/injection, schedule: Q01DX001 (ip), vehicle: carboxymethylcellulose (CMC)) 4 of 6; (dose: 300.0 mg/kg/injection, schedule: Q01DX001 (ip), vehicle: carboxymethylcellulose (CMC)) 0 of 6.

With `CCC(C)NCCOC(=O)C(c1ccccc1)c1ccccc1` (stereo not given), the survivor count was 2 of 6 (dose: 150.0 mg/kg/injection, schedule: Q01DX001 (ip), vehicle: other) and 0 of 6 (dose: 300.0 mg/kg/injection, schedule: Q01DX001 (ip), vehicle: other).

For `CC(C)(C)Sc1cccnc1`, the survivor count under setting [2] was 6 of 6.

With `C#CC(C)OCC(C)OC(C)=O` (stereo not given), the survivor count (dose: 200.0 mg/kg/injection, schedule: Q04DX003 (ip), vehicle: acetone) is reported as 3 of 6 and the survivor count (dose: 400.0 mg/kg/injection, schedule: Q04DX003 (ip), vehicle: acetone) is 0 of 6.
